{"source": "PubChem BioAssay AID540276", "about": "(National Center for Advancing Translational Sciences (NCATS), 2011)", "note": "Hit rate of the full screen: of about 300,000 compounds, about 5,400 (1.8%) were called active. This list was built around the results that the source calls inconclusive (neither active nor inactive); the mix of calls is not that of the screen. The call rests on the fitted dose curve; tested in HEK293 cells. Potencies beside an inconclusive call are fits to weak or partial responses and may not hold up. Potency means the concentration at half of the fitted maximal effect.", "data": [{"experiment": "qHTS for inhibitors of binding or entry into cells for Marburg Virus", "conditions": "Marburg virus pseudotyped entry inhibition, cell reporter; series mostly up to 37.8 µM", "values": [{"smiles": "O=C(Cc1ccccc1)OCCN1CCOCC1", "Potency": "inconclusive: 0.112 µM [activator, full curve, poor fit]"}, {"smiles": "Cc1cc(C)n2cc(COc3ccc4ccccc4c3)nc2n1", "Potency": "inconclusive: 12.6 µM [inhibitor, single point]"}, {"smiles": "Cc1ccc(SCC(=O)NN=C2CCN(C)CC2)cc1", "Potency": "inconclusive: 31.6 µM [activator, single point]"}, {"smiles": "CCCCN1C(=O)NC2NC(=O)NC21", "note": "(configuration not stated)", "Potency": "inactive"}, {"smiles": "CC(C)(c1ccccc1)c1ccc(OCC(O)CN2CCCC2)cc1", "note": "(configuration not stated)", "Potency": "active: 2.82 µM"}, {"smiles": "COCCN(C(=O)CSc1nc2nc(C)cc(C)n2n1)c1c(N)n(Cc2ccccc2)c(=O)[nH]c1=O", "Potency": "inactive"}, {"smiles": "O=C1C2C3C=CC(CC3)C2C(=O)N1c1ccc(Br)cc1[N+](=O)[O-]", "note": "(configuration not stated)", "Potency": "inactive"}, {"smiles": "CCOC(=O)C1(Cc2ccc(Cl)cc2)CCN(CCCn2cccn2)CC1", "Potency": "inconclusive: 12.6 µM [inhibitor, partial curve, poor fit]"}, {"smiles": "Clc1ccc(-c2cccs2)nn1", "Potency": "inconclusive: 35.5 µM [activator, single point]"}, {"smiles": "COc1cc(C(=O)OCc2nc3ccsc3c(=O)[nH]2)c([N+](=O)[O-])cc1OC", "Potency": "inactive"}, {"smiles": "COc1cc(/C=C2\\SC(=Nc3ccc(O)cc3)NC2=O)cc(OC)c1OC", "Potency": "inconclusive: 6.51 µM [inhibitor, full curve]"}, {"smiles": "O=C(NC(=S)NNS(=O)(=O)c1ccccc1)c1ccccc1[N+](=O)[O-]", "Potency": "inconclusive: 2.82 µM [activator, full curve, poor fit]"}, {"smiles": "COc1ccc(Nc2cc(C)nc(NCc3ccccc3)n2)cc1", "Potency": "inconclusive: 28.2 µM [inhibitor, single point]"}, {"smiles": "O=C(CCl)Nc1cccc(CP(=O)(c2ccccc2)c2ccccc2)c1", "Potency": "inconclusive: 17.8 µM [inhibitor, single point]"}, {"smiles": "O=C(CCSCc1ccc(Cl)cc1)NCc1ccco1", "Potency": "inactive"}, {"smiles": "CCCCNC(=O)Nc1nnc(-c2ccc(Cl)cc2)o1", "Potency": "inactive"}, {"smiles": "COc1cccc(CNC(=O)CCNS(=O)(=O)c2cccc3nsnc23)c1", "Potency": "inconclusive: 11.2 µM [activator, single point]"}, {"smiles": "CC1CN(S(=O)(=O)c2ccc(Cl)c(S(=O)(=O)N3CC(C)OC(C)C3)c2)CC(C)O1", "note": "(configuration not stated)", "Potency": "inconclusive: 10.3 µM [activator, partial curve, poor fit]"}, {"smiles": "CCOC(=O)C1=C(C)N(c2ccc(OC)cc2)C(=O)/C1=C\\c1cccs1", "Potency": "inactive"}, {"smiles": "CC(=O)Nc1ccc(SCC(=O)N(CCC#N)c2ccc(C)cc2)cc1", "Potency": "inconclusive: 0.073 µM [inhibitor, full curve, poor fit]"}, {"smiles": "Clc1cccc(-c2cc3nc4c(c(N5CCOCC5)n3n2)CCCC4)c1", "Potency": "inconclusive: 29.1 µM [inhibitor, single point]"}, {"smiles": "CCC(C)(C)c1nnc(NC(=O)C2CCN(C(=O)c3ccco3)CC2)s1", "Potency": "inconclusive: 20 µM [inhibitor, single point]"}, {"smiles": "CC(C)(C)c1ccc(-c2noc(CCC(=O)Nc3cccnc3)n2)cc1", "Potency": "inconclusive: 1.41 µM [inhibitor, full curve, poor fit]"}, {"smiles": "Cc1occc1C(=O)NCc1ccco1", "Potency": "inconclusive: 2.51 µM [activator, full curve, poor fit]"}, {"smiles": "COC(=O)c1cc(C(=O)Nc2cccc(C)n2)cc([N+](=O)[O-])c1", "Potency": "inactive"}, {"smiles": "CCCCOc1cccc(C(=O)Nc2cc3nn(-c4ccc(F)cc4)nc3cc2C)c1", "Potency": "inconclusive: 15.8 µM [activator, single point]"}, {"smiles": "CN1C(=O)c2ccccc2C(C(=O)O)C1c1cn(C)c2ccccc12", "note": "(configuration not stated)", "Potency": "inconclusive: 5.62 µM [activator, single point]"}, {"smiles": "C#CCN1C=CC(=O)[C@@H](OC(=O)Nc2ccccc2Br)[C@H]1c1ccccc1Br", "Potency": "inconclusive: 35.3 µM [inhibitor, single point]"}, {"smiles": "CCOC(=O)c1ccc(N2C(=O)c3n[nH]c(-c4cccs4)c3C2c2ccc(C)cc2)cc1", "note": "(configuration not stated)", "Potency": "inactive"}, {"smiles": "Cc1cc(NCCN)nc2ccccc12", "Potency": "inconclusive: 17.8 µM [inhibitor, partial curve]"}, {"smiles": "Cc1nc2ccc(NC(=O)NC(=O)c3c(Cl)cccc3Cl)cc2o1", "Potency": "inactive"}, {"smiles": "OCCNCCCCOc1ccc(OCc2ccccc2)cc1", "Potency": "inconclusive: 3.55 µM [activator, partial curve, poor fit]"}, {"smiles": "CC(C)CCNC(=O)c1ccc2c(Cl)c3c(nc2c1)CCC3", "Potency": "active: 10 µM"}, {"smiles": "CC1=C(C(=O)N2CCOCC2)C(c2c(F)cccc2F)NC(=O)N1", "note": "(configuration not stated)", "Potency": "inactive"}, {"smiles": "Cc1ccc(C(=O)Nc2ccc(F)cc2F)o1", "Potency": "inconclusive: 14.1 µM [activator, partial curve, poor fit]"}, {"smiles": "Cc1c(C(=O)Nc2nc3ccccc3[nH]2)cccc1[N+](=O)[O-]", "Potency": "inconclusive: 11.2 µM [activator, partial curve]"}, {"smiles": "O=C(Nc1cccc(-c2cn3ccccc3n2)c1)c1cnccn1", "Potency": "inconclusive: 11.2 µM [activator, single point]"}, {"smiles": "Cn1sc(NC(=O)c2cccc(Cl)c2)nc1=O", "Potency": "inconclusive: 14.6 µM [activator, single point]"}, {"smiles": "O=C(CSc1nc2nn(-c3ccccc3)c(=O)c-2c2n1CCCCC2)NCCc1ccccc1", "Potency": "inactive"}, {"smiles": "Cc1ccccc1NC(=O)c1sc2nc(-c3ccncc3)ccc2c1N", "Potency": "inconclusive: 3.55 µM [inhibitor, partial curve, poor fit]"}, {"smiles": "C=CCOc1ccc(/C=C/C(=O)OCC(=O)N2CCN(C(C)=O)CC2)cc1", "Potency": "inconclusive: 8.91 µM [inhibitor, partial curve, poor fit]"}, {"smiles": "O=c1c2sc(-c3ccccc3)cc2nc2n1CCCCC2", "Potency": "inconclusive: 11.2 µM [inhibitor, single point]"}, {"smiles": "CC(=O)Cc1nsc(NC(=O)c2ccc(-c3ccccc3Cl)o2)n1", "Potency": "inactive"}, {"smiles": "COc1ccc(OC2C(=O)N(Cc3ccc4c(c3)OCO4)C2c2cccs2)cc1", "note": "(configuration not stated)", "Potency": "inconclusive: 29.1 µM [inhibitor, single point]"}, {"smiles": "O=S(=O)(c1cccc2cccnc12)N1CCCCC1", "Potency": "inconclusive: 5.62 µM [activator, single point]"}, {"smiles": "O=C(NC1CCC(O)CC1)c1ccc(Br)o1", "note": "(configuration not stated)", "Potency": "inactive"}, {"smiles": "CC(=O)Nc1cccc(/C(C)=N/NC(=O)c2ccc3c(c2)OCO3)c1", "Potency": "inconclusive: 10 µM [inhibitor, partial curve]"}, {"smiles": "COc1ccc(NC(=O)CN2CCN(c3c(C)cccc3C)CC2)cc1", "Potency": "inconclusive: 31.6 µM [inhibitor, partial curve, poor fit]"}, {"smiles": "NC(Cc1ccc(Oc2ccc(O)cc2)cc1)C(=O)O", "note": "(configuration not stated)", "Potency": "inactive"}, {"smiles": "Cc1nc(SCC(=O)O)c2oc3ccccc3c2n1", "Potency": "inactive"}, {"smiles": "COc1ccc(COC(=O)C2=C(C)NC(=O)NC2c2ccc(F)cc2)cc1", "note": "(configuration not stated)", "Potency": "inconclusive: 35.5 µM [inhibitor, single point]"}, {"smiles": "Cc1ccc(C)c(NC(=O)CN(C)C(=O)Cc2ccc(Cl)cc2Cl)c1", "Potency": "inconclusive: 22.4 µM [inhibitor, single point]"}, {"smiles": "CC(=O)NCC(=O)N(c1c(C)n(C)n(-c2ccccc2)c1=O)C1(C(=O)NC2CCCC2)CCCCC1", "Potency": "inconclusive: 0.631 µM [activator, single point]"}, {"smiles": "CCOC(=O)CC(NCc1ccc(OC)c(OCC)c1)c1ccc(C)cc1", "note": "(configuration not stated)", "Potency": "inactive"}, {"smiles": "CCCCn1c(N)c(N(CC(C)C)C(=O)CN(C)S(=O)(=O)c2ccc(NC(C)=O)cc2)c(=O)[nH]c1=O", "Potency": "inconclusive: 35.5 µM [activator, single point]"}, {"smiles": "Cc1ccc(/C=C2\\SC(=O)N(CCC(=O)N3CCN(C)CC3)C2=O)cc1", "Potency": "inconclusive: 3.98 µM [activator, full curve]"}, {"smiles": "Cc1cccc(NC(=S)NC2CC3CCC(C2)N3Cc2ccco2)c1C", "note": "(configuration not stated)", "Potency": "inconclusive: 1.3 µM [inhibitor, partial curve]"}, {"smiles": "CC(=O)Oc1ccc(Cl)cc1/C=C/c1ccc2ccccc2n1", "Potency": "inconclusive: 0.708 µM [activator, single point]"}, {"smiles": "COc1ccccc1C(=O)NC(=O)CSc1nncn1C", "Potency": "inactive"}, {"smiles": "O=C(Cn1cncn1)NCc1cccc2ccccc12", "Potency": "inconclusive: 1.46 µM [inhibitor, partial curve]"}, {"smiles": "Cc1cc(C(=O)Nc2nc(C)c(C(=O)N(C)C)s2)ccc1[N+](=O)[O-]", "Potency": "inconclusive: 6.31 µM [inhibitor, partial curve]"}, {"smiles": "CCOc1c(Cl)cc(CNCC(C)C)cc1Cl", "Potency": "inactive"}, {"smiles": "O=C(O)CCN1C(=O)c2ccc(Oc3ccc4c(c3)C(=O)N(CCC(=O)O)C4=O)cc2C1=O", "Potency": "inconclusive: 29.1 µM [activator, single point]"}, {"smiles": "CCCNC(=O)c1ccccc1NC(=O)Nc1ccccc1C", "Potency": "inconclusive: 2.82 µM [activator, full curve, poor fit]"}, {"smiles": "Cc1ccc(C2(C)NC(=O)N(CC(=O)N(C)CC(=O)Nc3cccc4ccccc34)C2=O)cc1", "note": "(configuration not stated)", "Potency": "inconclusive: 2.24 µM [inhibitor, single point]"}, {"smiles": "COc1cc(OC)c(C(=O)O/N=C(\\N)c2ccc(C)cc2)cc1OC", "Potency": "active: 7.94 µM"}, {"smiles": "CC1CCN(CCc2nc3cc(NC(=O)NC4CCCCC4)ccc3n2C)CC1", "Potency": "inconclusive: 18.3 µM [inhibitor, partial curve, poor fit]"}, {"smiles": "O=C(O)c1n[nH]c2ccccc12", "Potency": "inactive"}, {"smiles": "COc1ccc(OC)c(C(c2nnnn2C2CCCC2)N2CCN(c3ccccc3F)CC2)c1", "note": "(configuration not stated)", "Potency": "active: 10 µM"}, {"smiles": "CC1CCN(C(=O)CCCOc2ccc(Cl)cc2)CC1", "Potency": "inactive"}, {"smiles": "Brc1ccc2nc(N3CCCC3)sc2c1", "Potency": "inconclusive: 14.1 µM [inhibitor, single point]"}, {"smiles": "CC(C)(C)C(=O)Nc1ccc2nc(SCC(=O)N3CCCC3)sc2c1", "Potency": "inconclusive: 2.51 µM [activator, full curve]"}]}]}
